# Test results: PubChem BioAssay AID1347075 (National Center for Advancing Translational Sciences (NCATS), 2019)
# Several values for one entry are separate records, joined by “and”; a condition that tells them apart may be missing. Equal entries are not always repeated. In all, about 400,000 compounds went through this assay and about 5,500 (1.4%) were called active. The inconclusive results got no clear call from the source; some entries with a clear call stand among them for comparison. Calls follow the shape of the dose curve; as a rule, active = well fitted cell-killing curve with a large enough effect; inconclusive = small, poorly fitted or top-dose-only effect, or effect the other way; inactive = flat fitted curve, though single readings scatter. Potencies beside an inconclusive call are fits to weak or partial responses and may not hold up.
# Test: qHTS assay for MDR1-selective chemotherapeutics: Primary screen using the parental adenocarcinoma cell KB-3-1; also: nearly all actives have a fitted effect of over 60% in size
# Conditions: KB-3-1 viability, CellTiter-Glo ATP luminescence, 72 h; activity change, negative = cytotoxic: at 46.1 µM (top of the series)
# Method in brief: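 Multi-concentration cytotoxicity screen in KB-3-1 cells grown in DMEM lacking phenol red with 10% FBS. After 72 h at 37 °C with compound, ATP-dependent luminescence was recorded.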
# % is scaled to controls: 0 for no effect and ±100 for the full control effect; potency is read from the fitted curve at half-maximal effect.
Structure (SMILES),Potency,"activity change, negative = cytotoxic"
Cc1ccc(-c2c[n+](Cc3ccc(Cl)cc3)c3n2CCC3)cc1,"inconclusive: 1.46 µM [cytotoxic, full curve, poor fit]",
O=C(Cn1c(=O)n(Cc2ccco2)c(=O)c2oc3ccccc3c21)Nc1ccc(F)cc1F,,inactive: 1.69%
CCC(Sc1nnc(C)n2c1cc1occc12)C(=O)Nc1ccccc1F (stereo unspecified),,inactive: 7.41%
COc1ccccc1NC(=O)c1ccc(-n2cccn2)nc1,"inconclusive: 29.1 µM [rising, single point]",
Cc1ccc2c(c1)C(SCC(=O)NCCc1ccccc1)CC1(CCCC1)O2 (stereo unspecified),"inconclusive: 23.1 µM [cytotoxic, partial curve, poor fit]",
COC(=O)C1=C(C)N(Cc2ccccc2)C(=NCc2cc(OC)c(OC)c(OC)c2)N[C@H]1c1ccc(Br)cc1,,inactive: -27%
Cc1cc(=O)n2[nH]c(N)c(N=Nc3ccccc3)c2n1,"inconclusive: 29.1 µM [cytotoxic, single point]",
C/C(=N\Nc1nc(N2CCCCC2)nc(N2CCOCC2)n1)c1ccccc1O,"inconclusive: 20.6 µM [cytotoxic, single point]",
CCOC(=O)c1cnn(-c2cc(C)c3ccccc3n2)c1N,,inactive: 5.29%
Clc1ccc2c(ccc[n+]2CCc2ccccc2)c1,"inconclusive: 16.4 µM [cytotoxic, single point]",
Nc1cccc2c1C(=O)N(CCOc1ccc(F)cc1)C2=O,,inconclusive: 47.4%
O=C(NCc1ccc2c(c1)OCO2)c1cc(-c2ccccn2)nc2ccccc12,"inconclusive: 3.66 µM [rising, partial curve, poor fit]",
O=C1CCN(Cc2ccccc2)CCN1CCOc1ccccc1,"inconclusive: 16.4 µM [cytotoxic, single point] and inconclusive: 29.1 µM [cytotoxic, single point]",
C/C(=N/NC(=O)C(C)n1nc(C)c([N+](=O)[O-])c1C)c1ccc(OCC(N)=O)cc1 (stereo unspecified),"inconclusive: 29.1 µM [rising, single point]",
Cc1c(C(=O)N(Cc2ccccc2)C(C)C)oc2ccc(S(=O)(=O)N3CCOCC3)cc12,"inconclusive: 18.4 µM [cytotoxic, single point]",
CCN(CC)c1ccc2c(Cl)c(Br)c(=O)oc2c1,"inconclusive: 29.1 µM [cytotoxic, single point]",
O=c1[nH]c(SCCOc2cccc3ccccc23)nc2ccccc12,"inconclusive: 18.4 µM [cytotoxic, partial curve, poor fit]",
COc1cc(OC)cc(-c2nc3n(n2)C(c2ccccc2F)C(C(=O)Nc2cccnc2)=C(C)N3)c1 (stereo unspecified),,inactive: 3.57%
CCCc1nnc(NC(=O)c2c(O)c3cccc4c3n(c2=O)CCC4)s1,"inconclusive: 5.8 µM [cytotoxic, full curve]",
O=C(CCCOc1ccc(Cl)cc1Cl)NNC(=O)c1ccc(NC(=O)c2ccccc2)cc1,,inactive: -11.7%
O=C(Nc1ccc2c(c1)CCC2)C1CCN(c2c3c(nc4ncnn24)CCC3)CC1,"inconclusive: 8.2 µM [cytotoxic, partial curve, poor fit]",
O=C(CSc1nccn1Cc1ccco1)Nc1cccc(F)c1,"inconclusive: 14.6 µM [cytotoxic, partial curve]",
COc1cccc(NC(=O)Nc2nnc(COCCO)s2)c1,,inactive: -0.009%
Cc1ccc(-n2c(CCC(=O)O)ccc2-c2cccs2)cc1C,"inconclusive: 29.1 µM [cytotoxic, single point]",

Structure (SMILES),Potency,"activity change, negative = cytotoxic"
O=C(CSc1nc2c(sc3ccccc32)c(=O)n1-c1ccccc1)NCc1ccco1,"inconclusive: 20.6 µM [cytotoxic, partial curve]",
CCOc1ccc(-c2noc(CCCC(=O)NC3CCCC3)n2)cc1OC,,inactive: -9.45%
CCC1Nc2ncnc(N3CCN(c4ccccn4)CC3)c2N(Cc2ccc(Br)cc2)C1=O (stereo unspecified),"inconclusive: 18.4 µM [cytotoxic, partial curve, poor fit]",
COC(=O)c1ccc(S(=O)(=O)N2CCCN(Cc3cccc(Br)c3F)CC2)n1C,"inconclusive: 14.6 µM [cytotoxic, partial curve, poor fit]",
CC(C)Cc1nc2ccccc2n1CCc1ccccc1,,inactive: -1.28%
CCn1nnnc1-c1ccc(OC)c(S(=O)(=O)Nc2ccc(C)c(C)c2)c1,"inconclusive: 29.1 µM [rising, single point]",
CCn1c(-c2ccccc2Cl)nn(CC(=O)Nc2cc(Cl)ccc2Cl)c1=S,"inconclusive: 29.1 µM [cytotoxic, single point]",
Cn1c2ccccc2c2n[nH]c(=O)nc21,"inconclusive: 2.59 µM [cytotoxic, full curve, poor fit]",
CC(C)n1cnnc1SCC(=O)Nc1cccnc1Cl,"inconclusive: 20.6 µM [cytotoxic, single point]",
CCCc1c(-c2cccc(Cl)c2)ncn1Cc1cccc(-c2ccccc2)c1,"inconclusive: 29.1 µM [cytotoxic, single point]",
O=C(CCC(=O)Nc1ccc(Cl)cc1Cl)N/N=C/c1ccc([N+](=O)[O-])o1,"inconclusive: 20.6 µM [cytotoxic, single point]",
COc1ccc(CCNC(=O)C2CC3Cn4c(nc5ccccc54)C3N2c2ccccc2)cc1 (stereo unspecified),"inconclusive: 29.1 µM [rising, single point]",
Cc1ccnc(NC(c2ccccc2)c2ccc3cccnc3c2O)c1 (stereo unspecified),"inconclusive: 18.4 µM [cytotoxic, single point]",
COc1ccccc1-c1nnc(Nc2nc3c(OC)cccc3s2)o1,active: 0.411 µM,
Oc1ccccc1O,,inconclusive: -13%
CCC(CO)[n+]1c(C)cc(/C=C2\Sc3ccccc3N2Cc2ccccc2)cc1C (stereo unspecified),active: 1.64 µM,
COc1ccc([C@H]2CC(=O)C=C(c3ccc4cc[nH]c4c3)C2)cc1,"inconclusive: 29.1 µM [cytotoxic, single point]",
CCOC(=O)c1c(C)[nH]c(C(=O)OCC(=O)NCCc2ccc(OCC)c(OCC)c2)c1C,,inactive: 45.6%
C/C(=N\NC(=O)c1ccn(C)n1)c1cccc(NC(=O)c2ccncc2)c1,"inconclusive: 29.1 µM [rising, single point]",
Cc1nnc(SCc2ccc(F)cc2)n1NC/C=C/c1ccccc1,"inconclusive: 18.4 µM [cytotoxic, single point]",
CN(C)c1nc(OCCNC(=O)Nc2ccc(Cl)cc2)nc(N(C)C)n1,,inactive: -0.62%
COc1ccc(CNS(=O)(=O)c2cc(-c3cc(C)no3)ccc2OC)cc1OC,"inconclusive: 23.1 µM [rising, partial curve, poor fit]",
CC(=Nc1ccc(Br)cc1)c1sc2ccccc2c1O,,inactive: -2.11%
COc1ccc2c(COC(=O)CNS(=O)(=O)c3ccccc3)cc(=O)oc2c1,"inconclusive: 25.9 µM [rising, single point]",

Structure (SMILES),Potency,"activity change, negative = cytotoxic"
Cc1cc2cc3c(cc2nc1SCC(=O)Nc1nc(C)c(C)s1)OCO3,"inconclusive: 14.6 µM [cytotoxic, partial curve, poor fit]",
CC(C)Cc1nnc(NC(=O)CSc2ccccn2)s1,"inconclusive: 11.2 µM [rising, partial curve]",
Cc1ccc(N2C(=O)CS(=O)(=O)C23C(=O)N(Cc2cccc(F)c2)c2ccccc23)cc1Cl (stereo unspecified),,inactive: 0.651%
Cc1cc(=O)[nH]c(SCC(=O)c2ccc(C(C)C)cc2)n1,,inactive: -0.268%
Cc1ccc2[nH]c(=O)c(CN(c3cccc(C)c3C)S(=O)(=O)c3ccccc3)cc2c1,active: 6.51 µM,
Cc1ccc(NC(=S)NNC(=O)c2c(Cl)c(C)nn2C)cc1,,inactive: -19%
CCOC(=O)N1CCN(C(=S)NC(=O)c2c(-c3c(Cl)cccc3Cl)noc2C)CC1,"inconclusive: 29.1 µM [cytotoxic, single point]",
CCOC(=O)c1nnn(-c2ccc([N+](=O)[O-])cc2[N+](=O)[O-])c1C,active: 23.1 µM,
CC1Cc2ccccc2N1c1ncnc2nc[nH]c12 (stereo unspecified),active: 9.2 µM,
O=C(N/N=C/c1ccncc1)c1ccccc1OCc1ccc(Br)cc1,"inconclusive: 20.6 µM [cytotoxic, single point]",
CNc1ccccc1C(C)(C)c1cc(-c2ccc(F)cc2)no1,active: 8.2 µM,
Nc1ccc(-c2cnc(-c3ccc(N)cc3)nc2)cc1,,inactive: -12.2%
Cc1ccc(NC(=O)CSc2nn(-c3ccc(Cl)cc3)c(=S)s2)cc1S(=O)(=O)N(C)C,"inconclusive: 23.1 µM [cytotoxic, single point]",
Cc1ccc(-c2nc(NC(=O)c3nn(C)cc3[N+](=O)[O-])sc2C)cc1C,"inconclusive: 16.4 µM [cytotoxic, single point]",
COc1ccc(N2c3ccccc3CN(Cc3ccccc3)[C@@H](C)[C@H]2Cc2c(C)cccc2C)cc1,"inconclusive: 25.9 µM [cytotoxic, single point]",
Cc1ccc(CN2C(=O)c3ccccc3C2C(=O)NC2CCCCCC2)cc1 (stereo unspecified),,inactive: -6.16%
CCOC(=O)C1=C(C)Nc2ncnn2C1c1cc(Br)ccc1F (stereo unspecified),"inconclusive: 29.1 µM [cytotoxic, single point]",
CCCCCCCCn1c2c(c(=N)c3c1CCC3)CCCC2,active: 0.411 µM,
COc1ccc2oc(C(=O)N3CCCc4ccccc43)c(C)c2c1,,inactive: -5.92%
COc1ccc(C)cc1-n1c(C)cc(C=O)c1C,,inactive: -10.3%
CCOC(=O)C1=C(COC(=O)C2(C)CC2(Cl)Cl)NC(=O)NC1c1ccccc1 (stereo unspecified),,inactive: 1.31%
CC(=O)Nc1ccc(-c2ccnc3c2CC(C(=O)Nc2ccc(C(C)C)cc2)O3)cc1 (stereo unspecified),,inactive: 11.6%
NC(=O)c1nsc(C(=O)N(c2cccc(O)c2)C(C(=O)NC2CCCC2)c2ccc(Cl)cc2)c1N (stereo unspecified),,inconclusive: -12.6%

# Exported bar-delimited: entries from further up
Structure (SMILES) | Potency | activity change, negative = cytotoxic
CCOC(=O)C1=C(COC(=O)C2(C)CC2(Cl)Cl)NC(=O)NC1c1ccccc1 (stereo unspecified) |  | inactive: 1.31%
CC(=O)Nc1ccc(-c2ccnc3c2CC(C(=O)Nc2ccc(C(C)C)cc2)O3)cc1 (stereo unspecified) |  | inactive: 11.6%
NC(=O)c1nsc(C(=O)N(c2cccc(O)c2)C(C(=O)NC2CCCC2)c2ccc(Cl)cc2)c1N (stereo unspecified) |  | inconclusive: -12.6%
